# Structures can show the parent of a compound that is named as a salt. The list shows a part of the results. Baselines shift from plate to plate; read single values as rough.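 A K-12 lab model strain is cultured statically in 96-well plates; biofilm is measured as the absorbance of crystal violet stain retained in the wells. Drugs counted as candidate specific biofilm blockers if they strongly reduced staining while slowing planktonic growth by under 70%.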
# System: Escherichia coli W3110
# Assay: biofilm formation (crystal violet staining) relative to untreated control; higher = more biofilm
# Conditions: 10 µM; 20-24 h; 30 °C; TB
row,Compound,biofilm formation
1,COc1ccc2[nH]c([S+]([O-])Cc3ncc(C)c(OC)c3C)nc2n1 (centres undefined) [Tenatoprazole],74%
2,CN(C)CCOC(c1ccccc1)c1ccccc1 [Diphenhydramine hydrochloride],68%
3,C[C@]12CC[C@@H]3c4ccc(O)cc4CC[C@H]3[C@@H]1CC[C@@H]2O [Estradiol-17 beta],94%
4,CCCN(CCC)S(=O)(=O)c1ccc(C(=O)O)cc1 [Probenecid],82%
5,Clc1ccc(CSC(Cn2ccnc2)c2ccc(Cl)cc2Cl)cc1 (centres undefined) [Sulconazole nitrate],56%
6,Nc1ccn([C@@H]2O[C@H](CO)[C@@H](O)C2(F)F)c(=O)n1 [Gemcitabine],88%
7,CN1C(=O)CC(c2ccccc2)C1=O (centres undefined) [Phensuximide],81%
8,CN(C)CCN(Cc1ccccc1)c1ccccn1 [Tripelennamine hydrochloride],69%
9,CC1CNc2c(cccc2S(=O)(=O)N[C@@H](CCCNC(=N)N)C(=O)N2CC[C@@H](C)C[C@@H]2C(=O)O)C1 (some centres undefined) [Argatroban],76%
10,CC(=O)O[C@@]12CO[C@@H]1C[C@H](O)[C@@]1(C)C(=O)[C@H](O)C3=C(C)[C@@H](OC(=O)[C@H](O)[C@@H](NC(=O)OC(C)(C)C)c4ccccc4)C[C@@](O)([C@@H](OC(=O)c4ccccc4)[C@H]21)C3(C)C [Docetaxel],88%
11,N=C(N)NC(=O)Cc1c(Cl)cccc1Cl [Guanfacine hydrochloride],64%
12,Clc1ccc(Cn2c(CN3CCCC3)nc3ccccc32)cc1 [Clemizole hydrochloride],68%
13,COc1cc2nc(N(C)CCCNC(=O)C3CCCO3)nc(N)c2cc1OC (centres undefined) [Alfuzosin hydrochloride],63%
14,O=C(O)COCCN1CCN(C(c2ccccc2)c2ccc(Cl)cc2)CC1 (centres undefined) [Cetirizine dihydrochloride],68%
15,N[C@@H]1CONC1=O [D-cycloserine],69%
16,C#C[C@]1(OC(C)=O)CC[C@H]2[C@@H]3CCC4=CC(=NO)CC[C@@H]4[C@H]3CC[C@@]21CC (mixture of isomers) [Norgestimate],54%
17,CC(=O)O[C@]1(C(C)=O)CC[C@H]2[C@@H]3C=C(Cl)C4=CC(=O)[C@@H]5C[C@@H]5[C@]4(C)[C@H]3CC[C@@]21C [Cyproterone acetate],59%
18,Clc1ccc(CO/N=C(\Cn2ccnc2)c2ccc(Cl)cc2Cl)c(Cl)c1 [Oxiconazole Nitrate],60%
19,CC1(C)[C@H](C(=O)O)N2C(=O)C[C@H]2S1(=O)=O [Sulbactam],86%

# 4 compounds from above, sorted by formula weight, ascending:
row,Compound,biofilm formation
7,CN1C(=O)CC(c2ccccc2)C1=O (centres undefined) [Phensuximide],81%
6,Nc1ccn([C@@H]2O[C@H](CO)[C@@H](O)C2(F)F)c(=O)n1 [Gemcitabine],88%
1,COc1ccc2[nH]c([S+]([O-])Cc3ncc(C)c(OC)c3C)nc2n1 (centres undefined) [Tenatoprazole],74%
13,COc1cc2nc(N(C)CCCNC(=O)C3CCCO3)nc(N)c2cc1OC (centres undefined) [Alfuzosin hydrochloride],63%
